Data taken from PubChem BioAssay AID1347076 (National Center for Advancing Translational Sciences (NCATS), 2019).
Among all 400,000 compounds or so, about 13,000 (3.2%) were called active. This list was built around the results that the source calls inconclusive (neither active nor inactive); the mix of calls is not that of the screen. The call rests on the fitted dose curve; in most records, active means well fitted cell-killing curve with a large enough effect; inconclusive means small, poorly fitted or top-dose-only effect, or effect the other way; inactive means flat fitted curve, though single readings scatter. Potencies of inconclusive entries are doubtful fits and often do not repeat.

Assay: qHTS assay for MDR1-selective chemotherapeutics: Primary screen using the drug-selected MDR subline cells KB-V1; further: nearly all actives have a fitted effect of over 60% in size
Settings: KB-V1 MDR cells viability, CellTiter-Glo, 72 h; activity change, negative = cytotoxicity: at 46.1 µM (top of the series)
Procedure, shortened: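 Compound-treated KB-V1 multidrug-resistant cells, 72 h, 37 degrees C; viability by CellTiter-Glo. Fitted qHTS curves give the values.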
On the % scale 0 is the no-effect control and ±100 the full control effect; potency means the concentration at half of the fitted maximal effect.

SMILES	Potency	activity change, negative = cytotoxicity
CC1Cc2ccccc2N1C(=O)CSc1nnc(-c2ccc(S(=O)(=O)N3CCOCC3)cc2)n1C (configuration not stated)	inconclusive: 16.4 µM [cytotoxic, single point]	
O=c1[nH]c(Cc2ccccn2)nc2scc(-c3ccc(Cl)cc3)c12	inconclusive: 2.59 µM [cytotoxic, full curve, poor fit]	
COC(C[C@@H](O)C[C@H](O)[C@@H](C)OCc1ccccc1)OC		inconclusive: 30.7%
O=C(NC(=S)N1CCc2ccccc21)c1ccc(Br)o1	inconclusive: 29.1 µM [cytotoxic, single point]	
CN(C1CCCCC1)S(=O)(=O)c1cc2c(cc1Cl)NC(=O)CO2	inconclusive: 10.3 µM [rising, partial curve, poor fit]	
CN1CCN(c2nc3ccccc3nc2C(C#N)C(=O)OC2CCCCC2)CC1 (configuration not stated)	inconclusive: 16.4 µM [cytotoxic, single point]	
O=C(Nc1ccc(CN2CCOCC2)cc1)c1ccc(-c2ccc(Br)cc2)o1	active: 20.6 µM	
COc1ccc(NC(=S)Nc2ccccn2)c(OC)c1	inconclusive: 23.1 µM [cytotoxic, single point]	
O=C(Nc1cccc(Cl)c1)Nc1csc([N+](=O)[O-])c1	inconclusive: 29.1 µM [cytotoxic, single point]	
CC1=NC(Nc2nc(C)c3ccccc3n2)=NC(C)(C)C1	inconclusive: 8.2 µM [cytotoxic, partial curve]	
Nc1cc(=O)[nH]c(SCC(=O)Nc2cc(S(=O)(=O)N3CCOCC3)ccc2Cl)n1	inconclusive: 0.651 µM [rising, full curve, poor fit]	
CC1CCCCN1C(=O)c1ccc(COc2ccc([N+](=O)[O-])cc2)o1 (configuration not stated)	active: 18.4 µM	
COc1ccc(S(=O)(=O)NCc2cccnc2)cc1NC(=O)c1ccccc1	inactive	
COc1cc2c(c(OC)c1OC)C(=O)CO2	inconclusive: 1.84 µM [rising, full curve]	
COc1ccc([C@H]2CC(=O)C=C(c3ccc4ccn(C)c4c3)C2)cc1	inconclusive: 8.2 µM [cytotoxic, partial curve, poor fit]	
S=c1[nH]nc(C2CCCCC2)n1/N=C/c1ccccc1Br		inconclusive: 40.1%
C=C(C)C1CC=C(C)/C(=N/NC(=O)COc2ccc(C)cc2)C1 (configuration not stated)	inactive	
Cc1ccc(CNC(=O)COc2ccccc2-c2ccccc2)cc1	inconclusive: 23.1 µM [cytotoxic, partial curve, poor fit]	
COc1cc(CNC2CCCCC2)c(Br)cc1OC1CCCC1	inconclusive: 9.2 µM [cytotoxic, partial curve]	
COC(=O)[C@@]12C[C@@H](CC(=O)N3CCC(c4ccccc4)CC3)C(=O)N(Cc3ccc4c(c3)OCO4)C1=CCC(C)(C)C2	inconclusive: 18.4 µM [cytotoxic, partial curve, poor fit]	
COc1ccc(-c2cc(C(F)(F)F)c(C#N)c(SCC(=O)Nc3ccccc3F)n2)cc1	inconclusive: 23.1 µM [rising, partial curve]	
CCOc1cc(C)cc2oc(=O)cc(-c3ccccc3)c12	inconclusive: 20.6 µM [cytotoxic, single point]	
Cc1ccccc1C(=O)Nc1nnc(SCC(=O)NCc2ccco2)s1	inactive	

Some of the entries so far, with each value named.
O=C(NC(=S)N1CCc2ccccc21)c1ccc(Br)o1
  Potency: inconclusive: 29.1 µM [cytotoxic, single point]
O=C(Nc1ccc(CN2CCOCC2)cc1)c1ccc(-c2ccc(Br)cc2)o1
  Potency: active: 20.6 µM
COc1ccc(NC(=S)Nc2ccccn2)c(OC)c1
  Potency: inconclusive: 23.1 µM [cytotoxic, single point]
Nc1cc(=O)[nH]c(SCC(=O)Nc2cc(S(=O)(=O)N3CCOCC3)ccc2Cl)n1
  Potency: inconclusive: 0.651 µM [rising, full curve, poor fit]

The results go on.

SMILES	Potency	activity change, negative = cytotoxicity
Cc1cc2cc(CCNC(=O)c3cccs3)c(=O)[nH]c2cc1C	inconclusive: 29.1 µM [cytotoxic, single point]	
COc1cc(NC(=O)CSc2nc(C)cs2)cc(OC)c1	inconclusive: 20.6 µM [cytotoxic, single point]	
C=CC[C@@H](CC(=O)NCCO)C(=O)N[C@H](COC(=O)[C@@H](CC=C)Cc1ccc(F)cc1)Cc1c[nH]c2ccccc12	inactive	
O=c1[nH]cnc2c1N1CCC2CC1	inconclusive: 29.1 µM [cytotoxic, single point]	
Cc1ccc(NC(=S)N(CCCN2CCC(C)CC2)Cc2ccco2)cc1C	active: 23.1 µM	
CSc1cccc(NC(C)C(=O)NCc2ccccc2)c1 (configuration not stated)	inconclusive: 20.6 µM [cytotoxic, single point]	
COC(=O)COc1ccc(S(=O)(=O)Nc2ccc3c(c2)OCCO3)cc1C	inconclusive: 7.31 µM [rising, partial curve, poor fit]	
COc1ccc(C(C(=O)NC(C)(C)C)N(C(=O)CCC(=O)Nc2cc(C)on2)c2ccc(C)c(C)c2)cc1 (configuration not stated)	inconclusive: 10.3 µM [cytotoxic, partial curve]	
CCOc1ccc(S(=O)(=O)N2CCC(N3CCN(Cc4ccc(C)cc4)C(=O)C3=O)CC2)cc1	inconclusive: 18.4 µM [rising, partial curve]	
COc1ccccc1Cn1c(C)c(C(=O)NCc2ccc3c(c2)OCCO3)sc1=O	inconclusive: 16.4 µM [cytotoxic, single point]	
CCOc1cc(/C=N/NC(=O)OC)ccc1OCCSc1ccc(Cl)cc1	inconclusive: 16.4 µM [cytotoxic, single point]	
c1ccc(-c2ccc(CN3CCSCC3)cc2)cc1	inactive	
CCOc1ccc(N2C(=O)CC(NCCc3c[nH]c4ccccc34)C2=O)cc1 (configuration not stated)	inactive	
COc1ccc(C)cc1N(CC(=O)NC1CCCC1)C(=O)CCC(=O)Nc1nc(C)cs1	inconclusive: 29.1 µM [cytotoxic, single point]	
COc1ccc(-n2ncc3c(N4CCCCC4)ncnc32)cc1	inconclusive: 14.6 µM [cytotoxic, single point]	
COc1ccc(C(=O)NC2CC2)cc1OC1CCN(Cc2ccc(SC)cc2)CC1	inactive	
COc1ccc(CNC(=O)CN(Cc2ccccc2Cl)C(=O)c2csnn2)cc1	inconclusive: 14.6 µM [cytotoxic, partial curve, poor fit]	
Cc1cc2c(cc1C)-n1nnnc1C(N1CCN(c3ccccc3F)CC1)C(=O)N2 (configuration not stated)	inconclusive: 16.4 µM [cytotoxic, partial curve, poor fit]	
COc1ccc(N2C(=O)CCC2=O)c(OC)c1	inconclusive: 25.9 µM [rising, single point]	
CC(/C=N/NC(=S)Nc1cccc(S(=O)(=O)N(C)C)c1)c1ccccc1 (configuration not stated)	active: 20.6 µM	
Cn1c(=O)c(=O)n(C)c2cc(S(=O)(=O)N3CCC(Cc4ccccc4)CC3)ccc21	inactive	
O=C1c2cccc3c([N+](=O)[O-])ccc(c23)C(=O)N1CC1CCCO1 (configuration not stated)	inconclusive: 23.1 µM [cytotoxic, single point]	
CN(C)S(=O)(=O)c1cccc(NC(=O)CCCc2nc3ccccc3c(=O)[nH]2)c1	inactive	

SMILES	Potency	activity change, negative = cytotoxicity
Cc1cc(C)c(NC(=O)COC(=O)Cn2nc(-c3ccccc3)oc2=O)c(C)c1	inactive	
CC1(C(=O)Nc2cccc(-n3cnnn3)c2)Cc2ccccc2C(=O)O1 (configuration not stated)	active: 11.6 µM	
COc1ccc(C(=O)c2oc3ccccc3c2NC(=O)c2ccc(F)cc2)cc1	inconclusive: 29.1 µM [rising, single point]	
O=C(c1cn(CCOc2ccccc2F)c2ccccc12)C1CCCCC1	inactive	
CCCCn1nnnc1C(c1cccs1)N1CCN(C/C=C/c2ccccc2)CC1 (configuration not stated)	inconclusive: 29.1 µM [cytotoxic, single point]	
O=C(Nc1cccc(Cl)c1)c1cc(S(=O)(=O)NCCc2ccc(Cl)cc2)ccc1F	inconclusive: 29.1 µM [cytotoxic, single point]	
CCOc1ccc(NC(=S)N(CCc2c(C)[nH]c3ccccc23)Cc2ccco2)cc1	inactive	
N#Cc1cccc(C#N)c1Oc1ccc(S(=O)(=O)Nc2ccccc2)cc1	inconclusive: 29.1 µM [cytotoxic, single point]	
O=[N+]([O-])c1ccc2[nH]c3c(c2c1)CCCC3O (configuration not stated)	active: 20.6 µM	
COc1ccccc1CNCc1cc(Br)ccc1OC	inconclusive: 20.6 µM [cytotoxic, single point]	
CCn1cc(C(=O)O)c(=O)c2cc(F)c(N3CCN(C(=S)NC(=O)c4ccc(F)c(F)c4)CC3)cc21	inactive	
CC(=O)OC(C)C1C2=C(C(=O)CC1(C)O)C(=O)c1c(ccc(-c3ccc4c(c3O)C(=O)C3=C(C4=O)C(C(C)OC(C)=O)C(C)(O)CC3=O)c1O)C2=O (configuration not stated)	inconclusive: 18.4 µM [cytotoxic, single point]	
CCC(=O)OC1(C#CCOc2ccc(OC)cc2)CCN(C)CC1	inactive	
Cc1occc1C(=O)N/N=C/c1ccc2c(c1)OCO2	active: 7.31 µM	
Fc1ccc(C(c2nnnn2CCc2ccccc2)N2CCCc3ccccc32)cc1 (configuration not stated)	inconclusive: 23.1 µM [cytotoxic, single point]	
Cc1cccc(OCC(=O)Nc2ccccc2N2CCCCC2)c1	inconclusive: 14.6 µM [cytotoxic, partial curve]	
COc1ccccc1Nc1nc(Cl)nc(NC(C)(C)C)n1	inconclusive: 20.6 µM [cytotoxic, single point]	
O=C(CN1CCC(NC(=O)C2CCCCC2)CC1)Nc1cccc(F)c1	inconclusive: 1.64 µM [cytotoxic, partial curve, poor fit]	
Cc1cc(C)cc(C(=O)N(CCc2ccccc2)C2CC3CCC(C2)N3C)c1 (configuration not stated)	inconclusive: 29.1 µM [cytotoxic, single point]	
O=C(Nc1ccccc1)c1ccc(NC2CCCCC2)c(S(=O)(=O)N2CCOCC2)c1	inconclusive: 8.2 µM [cytotoxic, partial curve, poor fit]	
CCc1nonc1NC(=O)c1oc2cc(C)c(Cl)cc2c1C	inconclusive: 29.1 µM [rising, single point]	

An excerpt of these results, with each value named:
O=[N+]([O-])c1ccc2[nH]c3c(c2c1)CCCC3O (configuration not stated)
  Potency: active: 20.6 µM
CCn1cc(C(=O)O)c(=O)c2cc(F)c(N3CCN(C(=S)NC(=O)c4ccc(F)c(F)c4)CC3)cc21
  Potency: inactive
